Values of other authors, collected in patent publication US7250180B2, “Anti-prostate cancer composition and therapeutic uses therefor” (priority 2004, dated 2007).
For at least one compound, name, drawing or mass did not settle the structure.

Test system: prostate cancer
Conditions: most patients eventually relapse

SMILES: CC(O)(CS(=O)(=O)c1ccc(F)cc1)C(=O)Nc1ccc(C#N)c(C(F)(F)F)c1 (stereo not shown) [bicalutamide, Bicalutamide]
- patients responding to treatment: Approximately 80%
